Only a part is listed here, and it is no random draw. For part of these data: At the low end of the ranking the order means little. Some of the results follow. For part of these data: Construct or isoform of the protein are uncertain.
Tests used:
Assay in all cases: DAPPL (digital affinity profiling via proximity ligation, sequencing)
Conditions in all cases: 10 mM Tris-HCl pH 7.5, 50 mM NaCl, 1 mM DTT, 4% glycerol, room temperature, 30 min; GST-TFs on glutathione beads, 16-mer random dsDNA library, 0.1% …; high values mean tight binding; double strand, one strand shown; scale: fold enrichment (6-mer frequency, TF over GST control)
ERG = molecular target: T1, ERG (UniProt P11308)
T1 sequence: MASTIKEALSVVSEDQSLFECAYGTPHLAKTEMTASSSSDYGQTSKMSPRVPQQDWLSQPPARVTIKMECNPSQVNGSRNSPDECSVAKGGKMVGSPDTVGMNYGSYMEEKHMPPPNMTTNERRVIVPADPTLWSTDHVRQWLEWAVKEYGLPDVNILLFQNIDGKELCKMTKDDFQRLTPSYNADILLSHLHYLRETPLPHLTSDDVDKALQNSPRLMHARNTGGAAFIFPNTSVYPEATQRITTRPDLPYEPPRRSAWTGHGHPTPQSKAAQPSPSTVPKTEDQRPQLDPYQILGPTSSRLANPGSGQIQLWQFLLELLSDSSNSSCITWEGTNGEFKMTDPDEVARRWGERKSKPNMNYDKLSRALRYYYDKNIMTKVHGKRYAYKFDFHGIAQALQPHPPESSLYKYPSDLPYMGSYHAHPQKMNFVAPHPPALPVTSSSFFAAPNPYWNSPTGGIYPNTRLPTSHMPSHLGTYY

Amino acid sequences for entries named in this document (tags omitted). A change or cut given only in a name is not applied to a line headed by its entry.
UniProt P32519: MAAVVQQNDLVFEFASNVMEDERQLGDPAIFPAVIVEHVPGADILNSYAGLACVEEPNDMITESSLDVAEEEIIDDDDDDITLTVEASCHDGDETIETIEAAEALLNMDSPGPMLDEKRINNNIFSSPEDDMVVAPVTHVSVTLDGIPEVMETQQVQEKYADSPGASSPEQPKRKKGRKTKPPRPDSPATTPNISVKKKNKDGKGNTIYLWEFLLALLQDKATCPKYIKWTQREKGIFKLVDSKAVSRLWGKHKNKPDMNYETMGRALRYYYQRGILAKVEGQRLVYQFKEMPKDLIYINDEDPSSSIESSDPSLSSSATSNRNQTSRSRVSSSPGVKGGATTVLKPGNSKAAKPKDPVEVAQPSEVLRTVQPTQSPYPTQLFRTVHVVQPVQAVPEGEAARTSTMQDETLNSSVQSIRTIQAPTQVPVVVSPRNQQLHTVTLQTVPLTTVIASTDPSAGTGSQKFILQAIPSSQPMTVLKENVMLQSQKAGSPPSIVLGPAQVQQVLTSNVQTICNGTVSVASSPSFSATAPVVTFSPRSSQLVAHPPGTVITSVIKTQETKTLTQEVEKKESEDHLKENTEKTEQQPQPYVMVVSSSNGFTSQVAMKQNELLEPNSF
UniProt P50549: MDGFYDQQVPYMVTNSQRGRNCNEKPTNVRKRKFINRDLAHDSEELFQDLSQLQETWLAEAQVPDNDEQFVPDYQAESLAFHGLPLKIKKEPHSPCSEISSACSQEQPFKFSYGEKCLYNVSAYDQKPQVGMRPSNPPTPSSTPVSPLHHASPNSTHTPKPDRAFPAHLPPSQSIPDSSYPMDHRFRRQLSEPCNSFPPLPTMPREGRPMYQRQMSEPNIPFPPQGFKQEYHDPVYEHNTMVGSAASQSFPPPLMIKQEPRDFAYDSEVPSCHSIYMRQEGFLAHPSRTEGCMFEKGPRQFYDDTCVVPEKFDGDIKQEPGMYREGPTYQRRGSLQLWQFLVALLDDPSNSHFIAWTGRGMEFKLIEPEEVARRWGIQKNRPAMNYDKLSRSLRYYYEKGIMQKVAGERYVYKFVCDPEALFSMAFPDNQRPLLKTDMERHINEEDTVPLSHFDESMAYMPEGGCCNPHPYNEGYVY

ELF1 = ELF1 (UniProt P32519)
ELK4 = molecular target: T2, ELK4 (UniProt P28324-2)
T2 sequence: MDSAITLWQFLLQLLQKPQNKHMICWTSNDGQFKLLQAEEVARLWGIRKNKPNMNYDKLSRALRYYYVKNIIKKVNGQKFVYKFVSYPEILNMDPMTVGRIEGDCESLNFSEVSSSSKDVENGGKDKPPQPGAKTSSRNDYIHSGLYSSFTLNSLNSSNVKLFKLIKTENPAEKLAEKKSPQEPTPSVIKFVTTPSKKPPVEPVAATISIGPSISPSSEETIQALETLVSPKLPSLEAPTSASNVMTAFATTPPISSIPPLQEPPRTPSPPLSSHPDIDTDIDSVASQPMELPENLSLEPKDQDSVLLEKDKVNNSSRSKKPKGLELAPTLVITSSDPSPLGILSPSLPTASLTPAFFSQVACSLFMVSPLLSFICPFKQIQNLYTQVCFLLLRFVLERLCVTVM

ETV4 = molecular target: T3, ETV4 (UniProt P43268)
T3 sequence: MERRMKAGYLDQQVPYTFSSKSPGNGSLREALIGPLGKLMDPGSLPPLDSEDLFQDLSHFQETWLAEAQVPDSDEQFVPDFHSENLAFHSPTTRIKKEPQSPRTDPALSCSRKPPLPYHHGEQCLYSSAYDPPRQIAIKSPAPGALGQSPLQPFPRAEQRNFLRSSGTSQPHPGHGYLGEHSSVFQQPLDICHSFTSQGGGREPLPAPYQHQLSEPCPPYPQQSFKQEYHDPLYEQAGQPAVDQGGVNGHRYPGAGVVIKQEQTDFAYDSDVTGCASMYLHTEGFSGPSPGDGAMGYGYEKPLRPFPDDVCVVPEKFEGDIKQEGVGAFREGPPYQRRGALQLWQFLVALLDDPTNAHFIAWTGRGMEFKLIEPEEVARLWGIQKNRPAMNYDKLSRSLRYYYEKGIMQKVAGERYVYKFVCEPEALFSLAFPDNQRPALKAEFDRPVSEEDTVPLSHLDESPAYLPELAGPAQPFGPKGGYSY

ETV1 = ETV1 (UniProt P50549)
ERF = molecular target: T4, ERF (UniProt P50548)
T4 sequence: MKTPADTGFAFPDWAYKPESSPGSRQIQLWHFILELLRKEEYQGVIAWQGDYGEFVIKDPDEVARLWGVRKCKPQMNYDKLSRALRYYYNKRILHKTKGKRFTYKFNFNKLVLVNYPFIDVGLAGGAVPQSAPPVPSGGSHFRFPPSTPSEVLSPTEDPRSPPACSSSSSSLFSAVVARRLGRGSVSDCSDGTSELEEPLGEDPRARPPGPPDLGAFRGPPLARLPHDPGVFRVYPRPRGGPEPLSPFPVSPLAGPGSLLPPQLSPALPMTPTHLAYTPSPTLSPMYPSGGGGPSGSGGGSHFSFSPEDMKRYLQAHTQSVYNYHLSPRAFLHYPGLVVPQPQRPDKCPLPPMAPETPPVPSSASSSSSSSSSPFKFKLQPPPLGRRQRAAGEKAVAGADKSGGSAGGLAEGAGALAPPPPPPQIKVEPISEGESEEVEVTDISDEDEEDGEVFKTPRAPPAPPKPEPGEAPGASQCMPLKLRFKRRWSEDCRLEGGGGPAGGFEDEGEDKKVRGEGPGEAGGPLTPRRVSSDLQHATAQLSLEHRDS

| Sequence | binding signal (ERG) | binding signal (ELF1) | binding signal (ELK4) | binding signal (ETV4) | binding signal (ETV1) | binding signal (ERF) |
| --- | --- | --- | --- | --- | --- | --- |
| TATCGG | 0.832 | 0.811 | 0.904 | 0.748 | 0.791 | 0.895 |
| GGTCGT | 0.616 | 0.585 | 0.615 | 0.572 | 0.603 | 0.593 |
| GGCTGG | 0.764 | 0.784 | 0.813 | 0.81 | 0.706 | 0.741 |
| GCGAGA | 0.525 | 0.468 | 0.437 | 0.538 | 0.517 | 0.558 |
| TGAGTG | 0.43 | 0.478 | 0.449 | 0.486 | 0.483 | 0.478 |
| GTAGGG | 0.665 | 0.681 | 0.734 | 0.671 | 0.645 | 0.638 |
| GTCAAT | 0.837 | 0.793 | 0.872 | 0.861 | 0.843 | 0.862 |
| CAGTCT | 0.752 | 0.791 | 0.83 | 0.728 | 0.725 | 0.758 |
| GCAGCG | 0.822 | 0.823 | 0.865 | 0.857 | 0.831 | 0.807 |
| TCGCAG | 0.918 | 0.856 | 0.934 | 0.887 | 0.97 | 0.849 |
| GGCAGT | 0.524 | 0.518 | 0.48 | 0.539 | 0.523 | 0.575 |
| GACAAT | 0.966 | 0.947 | 0.907 | 0.966 | 0.864 | 0.991 |
| GCCGAG | 0.6 | 0.592 | 0.65 | 0.687 | 0.608 | 0.603 |
| AGAGTG | 0.658 | 0.655 | 0.659 | 0.626 | 0.572 | 0.673 |
| CGCTGA | 0.824 | 0.896 | 0.999 | 0.834 | 0.859 | 0.824 |
| GGATAG | 0.715 | 0.729 | 0.788 | 0.735 | 0.689 | 0.739 |
| GGACGA | 0.637 | 0.629 | 0.573 | 0.643 | 0.614 | 0.687 |
| AGTGAT | 0.861 | 0.838 | 0.898 | 0.822 | 0.87 | 0.877 |
| CAGGAG | 0.276 | 0.265 | 0.239 | 0.252 | 0.238 | 0.249 |
| CAGACC | 0.771 | 0.789 | 0.773 | 0.826 | 0.862 | 0.73 |

| Sequence | binding signal (ERG) | binding signal (ELF1) | binding signal (ELK4) | binding signal (ETV4) | binding signal (ETV1) | binding signal (ERF) |
| --- | --- | --- | --- | --- | --- | --- |
| GGCGCG | 0.669 | 0.678 | 0.763 | 0.675 | 0.654 | 0.634 |
| CAGTGC | 0.732 | 0.8 | 0.751 | 0.839 | 0.729 | 0.798 |
| GAGTAG | 0.453 | 0.524 | 0.482 | 0.525 | 0.512 | 0.542 |
| CCGTCG | 0.808 | 0.781 | 0.749 | 0.706 | 0.801 | 0.801 |
| GGGACT | 0.692 | 0.673 | 0.645 | 0.709 | 0.686 | 0.651 |
| AGAGAC | 0.487 | 0.546 | 0.519 | 0.493 | 0.497 | 0.523 |
| GTCTGC | 0.88 | 0.901 | 0.887 | 0.966 | 0.891 | 0.899 |
| AGACAC | 0.758 | 0.806 | 0.875 | 0.776 | 0.724 | 0.778 |
| CCAGGG | 0.623 | 0.599 | 0.625 | 0.636 | 0.582 | 0.603 |
| GACGGT | 0.435 | 0.484 | 0.457 | 0.458 | 0.488 | 0.478 |
| GACGAG | 0.521 | 0.567 | 0.542 | 0.576 | 0.552 | 0.547 |
| TGAGCG | 0.634 | 0.642 | 0.769 | 0.647 | 0.623 | 0.662 |
| AGAGTA | 0.733 | 0.75 | 0.744 | 0.7 | 0.745 | 0.766 |
| CGTCGG | 0.457 | 0.435 | 0.349 | 0.403 | 0.45 | 0.398 |
| GGTCCG | 0.842 | 0.758 | 0.736 | 0.79 | 0.864 | 0.729 |
| GTAGTC | 0.683 | 0.703 | 0.643 | 0.747 | 0.681 | 0.67 |
| GCATGC | 0.853 | 0.848 | 0.939 | 0.902 | 0.872 | 0.757 |
| CAGGAC | 0.783 | 0.765 | 0.776 | 0.772 | 0.739 | 0.712 |
| GCATTG | 0.757 | 0.806 | 0.828 | 0.798 | 0.847 | 0.909 |
| GCGGTA | 0.755 | 0.714 | 0.699 | 0.732 | 0.754 | 0.698 |

| Sequence | binding signal (ERG) | binding signal (ELF1) | binding signal (ELK4) | binding signal (ETV4) | binding signal (ETV1) | binding signal (ERF) |
| --- | --- | --- | --- | --- | --- | --- |
| GTCGCC | 0.853 | 0.893 | 0.876 | 0.925 | 0.992 | 0.883 |
| GGGAAC | 0.693 | 0.65 | 0.683 | 0.658 | 0.705 | 0.633 |
| GCGCCA | 0.781 | 0.858 | 0.766 | 0.82 | 0.779 | 0.819 |
| GACTAA | 0.901 | 0.925 | 0.797 | 0.969 | 0.926 | 0.925 |
| GGTGAT | 0.785 | 0.789 | 0.842 | 0.794 | 0.797 | 0.893 |
| CAGCTG | 0.877 | 0.861 | 0.883 | 0.881 | 0.887 | 0.799 |
| GGTGCC | 0.685 | 0.758 | 0.761 | 0.706 | 0.676 | 0.691 |
| GGTAGC | 0.765 | 0.816 | 0.809 | 0.895 | 0.842 | 0.822 |
| AGGGTA | 0.854 | 0.89 | 0.975 | 0.861 | 0.91 | 0.942 |
| GCTTGA | 0.91 | 0.923 | 0.982 | 0.956 | 0.927 | 0.745 |
| GACCCG | 0.881 | 0.865 | 0.799 | 0.889 | 0.854 | 0.842 |
| AGTGGG | 0.598 | 0.609 | 0.577 | 0.548 | 0.644 | 0.558 |
| GGCCCG | 0.8 | 0.83 | 0.851 | 0.744 | 0.736 | 0.727 |
| GAGGAA | 0.867 | 0.709 | 0.597 | 0.715 | 0.871 | 0.75 |
| GTCAGG | 0.524 | 0.504 | 0.489 | 0.52 | 0.542 | 0.474 |
| GCGCAT | 0.891 | 0.83 | 0.959 | 0.908 | 0.837 | 0.821 |
| GAGTAC | 0.535 | 0.506 | 0.58 | 0.488 | 0.552 | 0.49 |
| CGGACG | 0.499 | 0.433 | 0.418 | 0.477 | 0.465 | 0.448 |
| TCAGCG | 0.788 | 0.798 | 0.918 | 0.792 | 0.716 | 0.675 |
| GGTGCA | 0.799 | 0.842 | 0.926 | 0.861 | 0.949 | 0.91 |

Laid out differently: entries from further up
Sequence,binding signal (ERG),binding signal (ELF1),binding signal (ELK4),binding signal (ETV4),binding signal (ETV1),binding signal (ERF)
GACAAT,0.966,0.947,0.907,0.966,0.864,0.991
TGAGCG,0.634,0.642,0.769,0.647,0.623,0.662
AGTGGG,0.598,0.609,0.577,0.548,0.644,0.558
CGGACG,0.499,0.433,0.418,0.477,0.465,0.448

Reference: article PMC7862700
